Assay results as given in PMC9396398, “Crystal structure of Ankyrin-G in complex with a fragment of Neurofascin reveals binding mechanisms required for integrity of the axon initial segment” (The Journal of Biological Chemistry, 2022).
Results are given in words; binding and its absence hold for the method and conditions named. Some results given as binding are weak or reduced against the parent protein; the word gives no strength.

Amino acid sequences for entries named in this document (tags omitted).
UniProt Q05695: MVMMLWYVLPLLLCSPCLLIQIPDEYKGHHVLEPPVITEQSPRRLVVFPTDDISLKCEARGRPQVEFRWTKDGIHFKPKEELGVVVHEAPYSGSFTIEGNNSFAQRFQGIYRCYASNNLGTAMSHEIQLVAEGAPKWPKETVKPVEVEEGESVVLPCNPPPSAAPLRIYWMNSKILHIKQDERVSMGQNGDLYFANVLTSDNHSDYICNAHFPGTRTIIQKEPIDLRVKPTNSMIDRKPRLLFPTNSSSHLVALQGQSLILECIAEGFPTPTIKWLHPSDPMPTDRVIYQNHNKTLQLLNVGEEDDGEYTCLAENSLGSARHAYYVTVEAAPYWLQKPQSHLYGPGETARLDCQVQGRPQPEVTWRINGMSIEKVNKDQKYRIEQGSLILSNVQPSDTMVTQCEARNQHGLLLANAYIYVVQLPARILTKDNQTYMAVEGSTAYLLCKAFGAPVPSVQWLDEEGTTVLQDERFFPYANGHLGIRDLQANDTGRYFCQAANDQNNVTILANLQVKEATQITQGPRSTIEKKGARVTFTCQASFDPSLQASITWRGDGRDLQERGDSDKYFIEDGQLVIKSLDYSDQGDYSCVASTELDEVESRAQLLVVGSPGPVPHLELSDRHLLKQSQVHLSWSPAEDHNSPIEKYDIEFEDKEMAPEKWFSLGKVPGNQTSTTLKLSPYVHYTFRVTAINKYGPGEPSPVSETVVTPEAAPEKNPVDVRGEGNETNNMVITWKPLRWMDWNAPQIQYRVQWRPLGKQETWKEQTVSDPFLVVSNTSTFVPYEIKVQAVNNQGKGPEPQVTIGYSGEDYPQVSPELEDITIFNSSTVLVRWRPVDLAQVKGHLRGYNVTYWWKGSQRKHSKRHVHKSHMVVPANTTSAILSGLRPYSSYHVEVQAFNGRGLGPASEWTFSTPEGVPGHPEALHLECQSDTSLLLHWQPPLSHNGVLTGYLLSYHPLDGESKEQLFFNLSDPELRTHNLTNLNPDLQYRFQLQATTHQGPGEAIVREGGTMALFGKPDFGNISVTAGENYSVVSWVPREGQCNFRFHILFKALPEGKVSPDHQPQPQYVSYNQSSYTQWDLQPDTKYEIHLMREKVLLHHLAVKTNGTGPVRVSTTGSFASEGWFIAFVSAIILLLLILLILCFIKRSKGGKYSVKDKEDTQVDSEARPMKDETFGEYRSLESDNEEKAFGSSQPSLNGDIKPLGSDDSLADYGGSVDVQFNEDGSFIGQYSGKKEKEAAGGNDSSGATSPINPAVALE

T1: AnkG ANK repeats (residues 38-855, R1-24) (UniProt O70511)
T1 sequence: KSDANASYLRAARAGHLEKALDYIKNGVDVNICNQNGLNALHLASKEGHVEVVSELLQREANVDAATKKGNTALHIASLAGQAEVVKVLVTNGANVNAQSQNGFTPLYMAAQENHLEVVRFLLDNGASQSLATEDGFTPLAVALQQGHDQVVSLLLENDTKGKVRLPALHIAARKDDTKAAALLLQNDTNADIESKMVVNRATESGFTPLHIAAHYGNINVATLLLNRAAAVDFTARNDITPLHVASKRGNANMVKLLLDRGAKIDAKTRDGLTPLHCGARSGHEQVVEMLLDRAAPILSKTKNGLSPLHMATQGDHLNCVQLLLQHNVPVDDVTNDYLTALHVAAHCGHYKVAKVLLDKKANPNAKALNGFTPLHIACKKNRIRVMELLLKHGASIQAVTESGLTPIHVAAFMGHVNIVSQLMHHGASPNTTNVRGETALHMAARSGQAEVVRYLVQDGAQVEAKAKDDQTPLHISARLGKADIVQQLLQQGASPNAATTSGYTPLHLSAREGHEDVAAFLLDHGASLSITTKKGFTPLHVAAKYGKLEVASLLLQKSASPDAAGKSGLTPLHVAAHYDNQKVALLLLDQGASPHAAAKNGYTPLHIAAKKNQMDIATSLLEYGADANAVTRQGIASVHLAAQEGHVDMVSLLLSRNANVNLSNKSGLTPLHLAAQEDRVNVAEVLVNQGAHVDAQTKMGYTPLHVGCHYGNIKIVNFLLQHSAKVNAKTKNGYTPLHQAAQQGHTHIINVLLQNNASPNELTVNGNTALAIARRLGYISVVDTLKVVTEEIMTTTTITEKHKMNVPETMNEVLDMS

T2: AnkG R8-16 (AnkG 275 to 571) (UniProt O70511)
T2 sequence: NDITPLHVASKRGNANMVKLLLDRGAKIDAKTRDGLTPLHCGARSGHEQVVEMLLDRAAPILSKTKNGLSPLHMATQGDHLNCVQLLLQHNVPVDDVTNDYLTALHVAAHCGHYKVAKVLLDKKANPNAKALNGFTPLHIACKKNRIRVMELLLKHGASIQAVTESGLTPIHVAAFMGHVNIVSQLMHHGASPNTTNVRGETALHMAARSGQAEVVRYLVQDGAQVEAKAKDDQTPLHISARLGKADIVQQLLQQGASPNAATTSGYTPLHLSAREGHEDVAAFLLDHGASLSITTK

B1: Nfasc 1198 to 1214 F1208Q (domain or fragment)
chain: GEGQFNEDGSQIGQYTV
B2: Nfasc 1198 to 1214 I1209Q (domain or fragment)
chain: GEGQFNEDGSFQGQYTV
B3: Nfasc 1198 to 1214 D1205A (domain or fragment)
chain: GEGQFNEAGSFIGQYTV
B4: Nfasc 1198 to 1214 D1205K (domain or fragment)
chain: GEGQFNEKGSFIGQYTV
B5: Nfasc ankyrin-binding domain (ABD, residues 1187-1214) (domain or fragment, UniProt P97685 1187-1214, looked up)
chain: SDDSLVDYGEGGEGQFNEDGSFIGQYTV
notes: also called Nfasc ABD; source: E. coli BL21 (DE3), purified (Ni-NTA, size-exclusion chromatography)
B6: AnkG ANK repeats (residues 38-855, R1-24) (domain or fragment, UniProt O70511 38-855)
chain: T1 sequence
B7: full-length Nfasc cytoplasmic tail (residues 1132-1240) (domain or fragment)
chain: KRSRGGKYPVREKKDVPLGPEDPKEEDGSFDYSDEDNKPLQGSQTSLDGTIKQQESDDSLVDYGEGGEGQFNEDGSFIGQYTVRKDKEETEGNESSEATSPVNAIYSLA
B8: Nfasc 1198 to 1214 WT (domain or fragment)
chain: GEGQFNEDGSFIGQYTV

Columns and labels:
[1] = target: T1, AnkG ANK repeats (residues 38-855, R1-24); experiment: ITC; VP-ITC at 25 °C; 50 mM Tris, 100 mM NaCl, 1 mM EDTA, 1 mM DTT, pH 7.8; Nfasc proteins (200 μM) in the syringe, AnkG proteins (20 μM) in the cell; one-site binding model; both purified
[2] = target: T2, AnkG R8-16 (AnkG 275 to 571); experiment: crystal structure; Nfasc 1187-1214 fused by the linker GSLVPRGS to the N-terminus of AnkG 275-571, tag removed; hanging drop at 16 °C; 2.5 Å; molecular replacement; both purified
[3] = target: T1, AnkG ANK repeats (residues 38-855, R1-24); experiment: SEC; analytical gel filtration (FPLC) on Superose 12 or Superdex 200 increase; 50 mM Tris, 100 mM NaCl, 1 mM EDTA, 1 mM DTT, pH 7.8; both purified
[4] = target: GST-L1CAM 1206 to 1233 WT (UniProt Q05695); experiment: pull-down; GST pull-down: AnkG R1-24 (60 μM) incubated with 20 μM GST or GST-L1CAM 1206-1233 proteins 1 h at 4 °C, GSH-sepharose 4B beads, 3 washes, Coomassie blue staining; 50 mM Tris, 100 mM NaCl, 1 mM EDTA, 1 mM DTT, pH 7.8; both purified

| Binder | binding [1] | other results |
| --- | --- | --- |
| B1 | binds |  |
| B2 | binds |  |
| B3 | binds |  |
| B4 | binds |  |
| B5 |  | binding [2]: binds; binding [3]: binds |
| B6 |  | binding [4]: binds |
| B7 | binds |  |
| B8 | binds |  |
